# Assay results

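Luminescence from an EWS-FLI1 target-promoter (NR0B1) reporter, set against a CMV-promoter reporter, two days after silencing single genes in TC32 Ewing sarcoma cells. Each siRNA was applied at 20 nM. A z-score of the log NR0B1-over-CMV signal, less the median of siRNAs with the same seed; more negative means a stronger specific loss of the NR0B1 reporter.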

The strongest results of the screen are mostly left out here. Sequences are the guide (antisense) strand, without overhang.

strand	target gene	seed-corrected z-score
UACGUAGACAAGGUCCAUG	KLHL40	0.5482
UUUGGGACCAUCCUCUGAC	PRDM14	-0.01837
UUUCGGUCAUCUUUUUCGC	SMC4	-0.3646
UCAUUGCCUAAAGAGUCCC	HPS5	0.5344
AAAGCUACUCGUUCGAUAG	KCTD3	0.2438
UUUCUUCUUAUCCAGUAGG	CCHCR1	0.7598
UUCGUGGACAGCUUGAUUG	EPHA5	0.5107
UGAGAUGUAGCACAGAUCC	OR14I1	-0.238
AACUGAGCUAUAAACUUGU	PMF1	0.9486
UGCAUGUAUACAUUCAGCC	CCNE1	-0.2636
UAAGCGUAUAUUCUCUUAG	NRDC	-0.6882
AUGUGGGUGAGAAGAAUCG	KCTD21	-0.9581
AGCUUUAUAGGAAUUCGUC	CBLL1	0.05117
AAAAGGUAACUUUUCUGUG	PRDX6	0.06762
UGAUUGCAUAUUGCAGGCG	CRYL1	-1.684
UAACGAAAGCUCCUAAUCC	TUBD1	1.204
UCUGGAGUUUCAAGGAUCG	CFAP65	0.479
UUUUUAUCCAUGUAUUCAC	SSBP1	0.3258
UUCAAUGUCAGAAUUAUAC	GNRH1	0.7876
AAAAUAGGAAGAUUUGUCU	SNX3	-1.231
UCCUCUCCAUAUAUAUUGC	TRIM48	-0.1149
AUUCGAAAUACUAAAAGUG	ZBTB5	0.3224
AAUUCGAAAAGUAACAGAC	RAD1	-0.2464
AAUCCUAUUAGCACAGCUG	MFSD8	-0.2365
UCUGGUGCAAGUUAAGACC	ZNF230	-1.308
UUCAGAUCCAGUUGUUGCC	PIGZ	0.5311
UAUUCGUAGAUUUUCAGAG	SAMD13	0.5736
UGACUUUCGAAGCCUGAGG	FAM209A	-0.7494
UUUGUUCUAUGUCUCGGUC	LYSMD3	0.00428
AGAUAUACCACAUCAUAGC	LOC729800	0.4509
AAAACAAAGAUACUCUUUU	NDUFB6	-0.303
AAAAGAUCACGAUAUAGGC	TUSC1	-0.2717
UUAAGAUUCCCUUUCGUGG	SALL1	0.01103
UAUACUUGAGCAUCUACUG	DNAJC24	-0.6976
UAUUGAUCUGAACCGCUCC	RAB39A	-0.3418
AAAGGAGUGAUAGAACUUG	IRX2	0.1897
UGAACCACAAGACAGGUCC	SIRPD	1.1
UCAGAGAUCACAAUAGCUU	ZBTB3	1.176
UUCUCUUAAGCCGUGACAC	FBXL3	0.09412
UGAGUUCACUCUUCAGUAG	KRTAP19-8	-1.004
UAAGUCUCUGGAUCACACG	KRT1	0.2015
UUCCCGAUAAUCAUACUUC	EXT1	-0.278
UUAUUGCCUAUUGCUCGAC	TAB2	0.2299
UCACUGAGAUCCGAUGUCA	C22orf42	1.343
UGGUCUAUCAGUUCACUAG	RASAL2	-0.4583
UUAAUCAGUUGUUUCAUUC	PDIK1L	-0.4095
UUGACUAUCAAAACUGGUC	SYT10	-1.223
UAGAGCAAUAUCCAAAUCC	NBAT1	-1.058
AAACAAGUCACUCUUCAUC	PKD1	-1.42
UGGGUUGACAGAGUACUGA	EQTN	-0.04139
UCUUUGGUGGCAAUGCCCG	DUX5	0.6822
UAGCUUAUUCCAUUUUGCG	DUSP8	-0.4291
UCCUCGUCUACUAUUUCUG	DCDC2	-1.266
UGCAGUCAAACUUUCCCGG	OAZ3	-0.4371
UACGAACCAAGUAGCAGGC	BEND2	0.2438
AACAGGGAAAGAACUUUCU	OR2A14	-0.6235
UUGUAUGAGAGCAUGAGGG	CPN2	-0.3243
UAUUGAGCUAGUCCAAGUG	THRB	0.3702
UUGACUAUUGUAUCGUUCC	PMS1	-1.222
UAAGUCUACGCCUUCGUCC	SPANXN3	-0.2776
UUCCGUUUGUAGUCGAUGG	NDUFA13	-0.9751
UUUCUUUCCAUCUCCCGAG	UPB1	0.2898
AGCCUUGCUAUGUUCACUC	TXLNG	-0.05822
UAGCAUCCAAUAAUGUCCC	TPRKB	-0.4979
UUUCGUUAUAACAUCAGGG	GLT6D1	1.036
UUGAGGAAGACUGGUAGCC	UTP14C	0.4294
UGUCGGAAAAUGUACAGUG	UBE2D1	-0.3701
AUGGUUAGAAUGAAUCUCC	ADAMTS19	-1.42
AAUGGUAUACUUGAGAUCC	SND1	0.2372
AUCCAUCUCACAGAAAUUG	SLPI	-0.08552
UGCAGUAUUAGGUAGAUCA	LOC440895	-0.2279
UCAGCGGCGAAGAAAGGCA	TMEM203	0.1494
UAAAGGUCCUGUGCUUCUC	LOC728040	1.313
GCUUAGACUCGGUACCACC	PMS2P1	1.302
UAACCAGUCAUCAACAAUC	PTP4A1	-0.6478
UCCUCUCUAGAAGUAGUUC	LOC645195	-0.01691
ACACGUGCAGGAUUCGAUG	WNT1	0.2336
UUACGGCAAUGUUUCCUGG	ADGRF2	-0.3714
UGACUUCUCAAUCAGUCGC	TJP3	-0.1603

Once more, the final 10:

AUCCAUCUCACAGAAAUUG against SLPI read seed-corrected z-score -0.08552.
UGCAGUAUUAGGUAGAUCA against LOC440895 read seed-corrected z-score -0.2279.
UCAGCGGCGAAGAAAGGCA against TMEM203 read seed-corrected z-score 0.1494.
UAAAGGUCCUGUGCUUCUC against LOC728040 read seed-corrected z-score 1.313.
GCUUAGACUCGGUACCACC against PMS2P1 read seed-corrected z-score 1.302.
UAACCAGUCAUCAACAAUC against PTP4A1 read seed-corrected z-score -0.6478.
UCCUCUCUAGAAGUAGUUC against LOC645195 read seed-corrected z-score -0.01691.
ACACGUGCAGGAUUCGAUG against WNT1 read seed-corrected z-score 0.2336.
UUACGGCAAUGUUUCCUGG against ADGRF2 read seed-corrected z-score -0.3714.
UGACUUCUCAAUCAGUCGC against TJP3 read seed-corrected z-score -0.1603.

Data taken from PubChem BioAssay AID1159506, deposited by NCATS (2015).